{"sequences": {"note": "Chains of the proteins cited; added tags and fusions are not shown.", "UniProt Q7GBF7": "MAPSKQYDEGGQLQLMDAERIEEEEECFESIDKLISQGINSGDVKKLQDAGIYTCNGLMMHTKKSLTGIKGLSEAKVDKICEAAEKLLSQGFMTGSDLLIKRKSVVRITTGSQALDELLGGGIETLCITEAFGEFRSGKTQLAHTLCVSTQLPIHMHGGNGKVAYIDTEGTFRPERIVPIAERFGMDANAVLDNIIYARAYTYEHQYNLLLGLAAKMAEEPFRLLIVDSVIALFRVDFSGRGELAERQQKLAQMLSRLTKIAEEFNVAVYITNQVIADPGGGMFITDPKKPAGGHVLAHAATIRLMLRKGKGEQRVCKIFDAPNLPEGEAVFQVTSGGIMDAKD"}, "source": "paper PMC9310568", "binders": {"B1": {"name": "DMC1A (yeast two-hybrid fusion) (protein, UniProt Q7GBF8 1-344)", "chain": "MAPSKQYSEGGQLQLMDAERIEEEEECFESIDKLISQGINSGDVKKLQDAGIYTCNGLMMHTKKSLTGIKGLSEAKVDKICEAAEKLLSQGFITGSDLLIKRKSVVRITTGSQALDKLLGGGIETLCITEAFGEFRSGKTQLAHTLCVSAQLPIHMHGGNGKVAYIDTEGTFRPERIVPIAERFGMDANAVLDNIIYARAYTYEHQYNLLLGLAAKMAEEPFRLLIVDSVIALFRVDFSGRGELAERQQKLAQMLSRLTKIAEEFNVAVYITNQVIADPGGGMFITDLKKPAGGHVLAHAATIRLMLRKGKGEQRVCKIFDAPNLPEGEAVFQVTSGGIMDAKD"}, "B2": {"name": "DMC1B (yeast two-hybrid fusion) (protein, UniProt Q7GBF7 1-344)", "chain": "B1 chain with S8D, I93M, K117E, A150T, L288P"}}, "target": "FIGNL1 (full-length, yeast two-hybrid fusion) (rice (Oryza sativa))", "test": "two-hybrid; pairwise test of constructs in pGADT7 and pGBKT7 in yeast strain Y2H Gold; growth on DDO and QDO/X/A plates", "note": "Positions count from the first letter of the chain named. No constants are given. Whether binding was seen depends on the method and setting. A result given as binding can be weak or reduced; the word gives no strength. Sequences can lack the tags named with a protein."}
{"binder": "B1", "values": [{"measurement": "binding", "value": "binds"}]}
{"binder": "B2", "values": [{"measurement": "binding", "value": "binds"}]}
